The supplement of paper PMC11732987, “Enantioselective OTUD7B fragment discovery through chemoproteomics screening and high-throughput optimisation” (Communications Chemistry, 2025)
The other results are listed elsewhere or left out. The data scatter; read single values as rough.

The chains behind the UniProt entries cited, without tags or fusion partners. Where a name states a change or a piece, a line headed by the entry shows the natural chain unless it says otherwise.
UniProt O43815: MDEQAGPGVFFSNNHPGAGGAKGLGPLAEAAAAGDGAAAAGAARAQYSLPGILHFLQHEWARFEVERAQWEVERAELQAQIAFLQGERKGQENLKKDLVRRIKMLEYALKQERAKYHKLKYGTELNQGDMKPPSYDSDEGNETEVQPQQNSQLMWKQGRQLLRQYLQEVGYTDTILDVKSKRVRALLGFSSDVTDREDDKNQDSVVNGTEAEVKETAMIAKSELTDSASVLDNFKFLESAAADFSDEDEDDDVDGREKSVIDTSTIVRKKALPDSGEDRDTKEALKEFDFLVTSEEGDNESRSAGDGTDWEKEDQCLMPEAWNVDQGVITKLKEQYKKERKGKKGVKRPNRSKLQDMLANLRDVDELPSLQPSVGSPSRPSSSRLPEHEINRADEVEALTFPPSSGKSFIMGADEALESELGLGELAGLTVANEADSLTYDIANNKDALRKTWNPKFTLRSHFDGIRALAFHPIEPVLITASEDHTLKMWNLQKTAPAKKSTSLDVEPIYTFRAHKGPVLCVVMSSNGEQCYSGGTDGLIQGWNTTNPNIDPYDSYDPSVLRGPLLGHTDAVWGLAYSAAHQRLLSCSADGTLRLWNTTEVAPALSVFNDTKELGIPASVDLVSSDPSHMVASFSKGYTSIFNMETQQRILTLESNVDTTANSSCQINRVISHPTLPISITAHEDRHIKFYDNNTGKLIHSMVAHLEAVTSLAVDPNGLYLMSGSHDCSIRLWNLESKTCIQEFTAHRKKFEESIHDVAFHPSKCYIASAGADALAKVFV

target: T1, STRN C316 (UniProt O43815); experiment: log2 mean competition ratio of IA-DTB cysteine labelling (DMSO/compound) (log2 ratio); higher = stronger cysteine engagement by compound; details: 50 µM; treatment time: 4 h; cell line lysate: HEK293T
T1 sequence (whole entry): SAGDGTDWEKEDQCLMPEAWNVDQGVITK
Method: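 IA-DTB competitive cysteine chemoproteomics in HEK293T RIPA lysate. Lysates were treated with compound 29 or 30 at 50 or 200 µM for 4 h, then IA-DTB (500 µM, 1 h), trypsin-digested, NeutrAvidin-enriched and analysed by diaPASEF. Competition ratio = intensity DMSO / intensity compound (n=4 treated, n=64 DMSO); binding: mean log2 CR ≥ 1 and p ≤ 0.05 plus QC filters. Target is the cysteine site.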

SMILES | log2 mean competition ratio
O=C(CCl)N[C@@H]1CCCc2ccccc21 | -0.264
O=C(CCl)N[C@H]1CCCc2ccccc21 | 0.352

same assay, conditions: 200 µM; treatment time: 4 h; cell line lysate: HEK293T

SMILES | log2 mean competition ratio
O=C(CCl)N[C@@H]1CCCc2ccccc21 | -0.24
O=C(CCl)N[C@H]1CCCc2ccccc21 | -0.289
